We go through two substances from publication PMC10259029.

Chains of the proteins cited; added tags and fusions are not shown. Residues count along the entry.
UniProt Q9GZV5: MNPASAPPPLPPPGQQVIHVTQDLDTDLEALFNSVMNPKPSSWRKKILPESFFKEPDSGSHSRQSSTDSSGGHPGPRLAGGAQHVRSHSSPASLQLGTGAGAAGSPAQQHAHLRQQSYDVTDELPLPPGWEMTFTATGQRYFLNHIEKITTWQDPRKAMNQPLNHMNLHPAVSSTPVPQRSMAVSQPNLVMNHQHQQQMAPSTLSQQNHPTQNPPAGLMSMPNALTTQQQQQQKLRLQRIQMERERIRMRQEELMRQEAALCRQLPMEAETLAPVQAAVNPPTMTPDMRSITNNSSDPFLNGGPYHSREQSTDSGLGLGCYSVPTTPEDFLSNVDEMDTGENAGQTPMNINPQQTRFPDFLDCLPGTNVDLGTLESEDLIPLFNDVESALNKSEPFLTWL
UniProt Q9NZQ7, residues 19-290: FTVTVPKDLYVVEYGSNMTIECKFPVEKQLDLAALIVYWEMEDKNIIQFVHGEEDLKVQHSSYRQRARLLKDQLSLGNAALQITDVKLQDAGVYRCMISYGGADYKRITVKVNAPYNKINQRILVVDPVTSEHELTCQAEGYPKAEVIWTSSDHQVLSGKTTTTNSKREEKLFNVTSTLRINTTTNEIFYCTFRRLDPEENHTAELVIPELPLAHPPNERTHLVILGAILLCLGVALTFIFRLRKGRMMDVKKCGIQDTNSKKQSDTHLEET

The test has as its target T1, B4GALT1-HA (beta-1,4-galactosyltransferase 1, HA-tagged) (UniProt P15291).
T1 sequence: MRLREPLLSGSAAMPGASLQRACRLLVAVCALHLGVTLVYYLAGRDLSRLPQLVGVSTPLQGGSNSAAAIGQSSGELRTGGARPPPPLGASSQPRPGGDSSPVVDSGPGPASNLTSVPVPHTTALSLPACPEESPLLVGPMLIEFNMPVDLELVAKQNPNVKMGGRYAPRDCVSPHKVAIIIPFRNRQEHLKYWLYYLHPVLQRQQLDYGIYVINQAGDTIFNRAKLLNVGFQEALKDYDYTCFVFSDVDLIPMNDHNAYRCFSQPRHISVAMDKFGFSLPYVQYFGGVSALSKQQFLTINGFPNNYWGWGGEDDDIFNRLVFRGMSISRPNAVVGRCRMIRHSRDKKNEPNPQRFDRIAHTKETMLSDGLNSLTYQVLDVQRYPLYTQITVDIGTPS
As to the kind of experiment: co-IP; A549 cells transfected with B4GALT1-HA and PD-L1-Flag or TAZ-Flag for 24 h; lysates incubated with DDDDK-Tag mAb or anti-HA-Tag mAb at room temperature for 2 h, Protein A/G magnetic beads at 4 °C overnight; western blot. Background: In western blotting, separated proteins are transferred to a membrane and probed.

Results are given in words; binding and its absence hold for the method and conditions named. Binding seen in cells or lysates may run through a third protein. Some results given as binding are weak or reduced against the parent protein; the word gives no strength. Tags and fused reporters may be left off the sequences shown.

Regarding “TAZ-Flag (WW domain-containing transcription regulator 1, Flag-tagged) (from UniProt Q9GZV5 1-400)”, the binding result was “binds”. Then “PD-L1-Flag (programmed cell death ligand 1, Flag-tagged) (from UniProt Q9NZQ7 19-290)”, with “binds”.
